Reference: patent publication US20150202321A1, “COMPOSITIONS COMPRISING CHITOSAN-DRUG CONJUGATES AND METHODS OF MAKING AND USING THE SAME” (NEWGEN BIOPHARMA CORP., priority 2012, published 2015)
Where a name gives a salt, the structure may show the parent alone. Read-outs that look alike come from different tables or passages of the source.

Assays:
[1] = Acidic degradation studies (1 N HCl, 80° C.); format: physicochemical; conditions: 4 h time point
Method: Acidic degradation studies: Stability of the drug and the formulation in conditions simulating the gastric environment was determined by adding 10 µg of AT and CH-AT nano-conjugate to 10 mL of 1 N HCl and mixture was refluxed at 80° C. At designated time points, 3 mL of the sample was withdrawn and assayed for drug concentration by UHPLC method as described below.
UHPLC analysis: AT was analyzed by UHPLC with a Waters Acquity™ UPLC system (Serial No #F09 UPB 920 M; Model Code #UPB; Waters, MA, USA). Chromatographic separation was performed on an Acquity UPLC BEH C18 (100 mm×2.1 mm, 1.7 lm) column. The mobile phase was composed of 0.05 M NaH2PO4 buffer:methanol (30:70 (v/v)), adjusted to a pH of 5.1 and a flow rate of 1.0 mL/min. The detection wavelength was set at 247 nm and the retention time was 3.9 min. For the analysis of the samples from receptor solution, aliquots of 20 µL from each sample were injected via the manual injector into a HPLC system. Plasma samples were first extracted with ethyl acetate, vortexed and centrifuged at 10,000 rpm for 15 min. The supernatant was evaporated to dryness and the residue was reconstituted with the mobile phase. All the samples were filtered through a 0.11 μm pore size membrane filter before injection. The assay was linear (r^2=0.9995) in the concentration range of 0.01-50 μg/mL with a detection limit of 0.005 μg/mL. […]

[2] = In vivo pharmacokinetics after oral administration to rats; conditions: female, albino, rat, plasma, 5 mg AT per rat, 0.5 mL aqueous dispersion equivalent to 10 mg/mL AT, fasted 12 h
[3] = cited from earlier work

For `CC(C)c1c(C(=O)Nc2ccccc2)c(-c2ccccc2)c(-c2ccc(F)cc2)n1CC[C@@H](O)C[C@@H](O)CC(=O)O` [AT, [R—(R/,R/)]-2-(4-fluorophenyl)-b,d-dihydroxy-5-(1-methylethyl)-3-phenyl-4-[(phenylamino)carbonyl]-1H-pyrrole-1-heptanoic acid, calcium salt (2:1) trihydrate], which “acidic degradation of drug” value [1] is on record?
The value was “complete drug degradation”.

What about the Tmax [2] of the same compound?
Its Tmax is 2 h.

And the AUC(0-inf) ([2]; mean, n = 6)?
Its AUC(0-inf) is 11.9 µg·h/mL.

What about the AUC(0-t) ([2]; mean, n = 6) of the same compound?
Its AUC(0-t) is 8.24 µg·h/mL.

What about the Cmax ([2]; mean, n = 6) of the same compound?
Its Cmax is 0.583 ± 0.0555 µg/mL.

What about the “reduction in AUC (extent of absorption)” value ([3]; administration with food) of the same compound?
Its value is 9%.

What about the “reduction in Cmax (rate of absorption)” value ([3]; administration with food) of the same compound?
The value was 25%.

What about the “time to reach peak concentrations (tmax)” value ([3]; after oral administration) of the same compound?
The value was 1 to 2 h.

And the “reduction in AUC (extent of absorption)” value ([3]; evening dose administration)?
Its value is 30%.

And the “reduction in Cmax (rate of absorption)” value ([3]; evening dose administration)?
The value was 30%.

And the “time to maximum plasma concentration (Tmax)” value ([3]; oral)?
Its value is 1 to 2 h.
